Reference: PMC3271191
Results are given in words; binding and its absence hold for the method and conditions named. Some entries that bind do so weakly or less than the wild type. Where a sequence is shown, tags or fusion partners need not be part of it.

B1: CEH-14 (protein, UniProt P20271 1-351)
chain: MLGHNILTLGECDELDNHIVMCSTGLLSPQEDFSNVNAGHPNNEEAICSLCDKKIRDRFVSKVNGRCYHSSCLRCSTCKDELGATCFLREDSMYCRAHFYKKFGTKCSSCNEGIVPDHVVRKASNHVYHVECFQCFICKRSLETGEEFYLIADDARLVCKDDYEQARDKHCNELEGDGSNKRPRTTISAKSLETLKQAYQTSSKPARHVREQLASETGLDMRVVQVWFQNRRAKEKRLKKDAGRRWKSSNRAESDSNSPIESINGQSPNYLYLDHPMDDGNESNYLFHSREQTPDKYYRNETPSTDPPPMHMTTPSVLTTNFSTPLSLSTNVYNLPPPESQLIPHMTPQYI
B2: AD-CEH-63(whole) (protein, UniProt A3FPJ2 1-152)
chain: MTSKTNMTSNKFAYDFFPWSNDTNSSQQIKNIKPPPKRSNRPTKRTTFTSEQVTLLELEFAKNEYICKDRRGELAQTIELTECQVKTWFQNRRTKKRRCTSPLRKSMMKKSDERSPSPQNPSSQHVQNLQTFFHSWPSHFAYSLPSDQQNNV

Molecular target: T1, CEH-14 (C. elegans) (UniProt P20271)
T1 sequence: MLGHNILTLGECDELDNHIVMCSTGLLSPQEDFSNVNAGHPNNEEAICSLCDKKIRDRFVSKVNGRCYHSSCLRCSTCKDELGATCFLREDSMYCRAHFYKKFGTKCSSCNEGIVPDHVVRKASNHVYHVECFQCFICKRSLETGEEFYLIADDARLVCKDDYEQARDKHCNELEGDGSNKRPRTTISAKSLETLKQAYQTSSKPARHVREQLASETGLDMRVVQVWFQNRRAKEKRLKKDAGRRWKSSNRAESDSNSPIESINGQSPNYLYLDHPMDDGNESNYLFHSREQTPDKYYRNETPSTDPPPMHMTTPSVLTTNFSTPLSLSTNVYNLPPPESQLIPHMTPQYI
Experiment: two-hybrid; direct assays: Gal4AD-TF prey plasmids transformed into the haploid Gal4DB-TF bait strain (MaV103); beta-galactosidase assay on overlay filter membranes and growth on selective plates plus 20, 40 or 60 mM 3-AT; individual yeast transformant colonies scored

| Binder | binding |
| --- | --- |
| B1 | binds |
| B2 | binds |
